Assay results taken from PubChem BioAssay AID624297 (National Center for Advancing Translational Sciences (NCATS), 2012).
Out of some 340,000 compounds screened, about 6,200 (1.8%) were called active. Inconclusive results, whose numbers are uncertain, are shown with a selection of clear calls. Calls follow the shape of the dose curve; as a rule, active = well fitted activation curve with a large enough effect; inconclusive = small, poorly fitted or top-dose-only effect; inactive = no such curve, though single readings can be large or run the other way. A potency beside an inconclusive call is a rough fit, not a confirmed value.

experiment: A quantitative high throughput screen for small molecules that induce DNA re-replication in SW480 colon adenocarcinoma cells.; also: nearly all actives have a fitted effect of over 55% in size; as to re-replication activation: % of control where 0% means no effect; settings: Hoechst DNA content imaging, 48 h; re-replication activation: at 46.1 µM (top of the series) unless noted
How it was run: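 250 cells/well; 23 nL cpd via pin tool; 48 hr, 37 C, 5% CO2; Hoechst 40 min; imager read of total nuclear intensity, ex 405/em 500-530 nm.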
Potency is read from the fitted curve at half-maximal effect.

Row | Compound | re-replication activation | Potency
1 | Cc1sc2nc(CSCC(=O)Nc3ccc(N4CCOCC4)cc3)[nH]c(=O)c2c1C | inactive: -11% | 
2 | O=C1C(C=NCCCN2CCOCC2)=C(O)c2ccccc21 | inactive: 2.54% [at 9.22 µM] | 
3 | O=C(CN(C(=O)c1csnn1)c1ccc(F)cc1)NCCc1ccccc1 | inactive: 10.9% | 
4 | O=S1(=O)CCC(NC(=S)NC2CCS(=O)(=O)C2)C1 (stereo unspecified) | inactive: -11.1% | 
5 | Cc1ccc(Nc2nc(N)nc(-c3oc4ccccc4c3C)n2)cc1 |  | inconclusive: 0.184 µM [activator, full curve, poor fit]
6 | CN1CCCN(Cc2ccccc2C(F)(F)F)CC1 |  | inconclusive: 29.1 µM [activator, partial curve, poor fit]
7 | Cc1cccc(N(C(=O)C(F)(F)F)C(C(=O)NC2CCCCC2)c2cccs2)c1 (stereo unspecified) |  | inconclusive: 20.6 µM [activator, single point]
8 | Cc1oc(=O)c(NC(=O)c2ccc(Cl)cc2)cc1C(=O)c1ccccc1 |  | inconclusive: 25.9 µM [activator, single point]
9 | Cc1cccc(-n2ncc3c2CCCC3NC(=O)CCc2ccncc2)c1C (stereo unspecified) |  | inconclusive: 2.91 µM [activator, full curve]
10 | COc1ccc(C(=O)/C=C/Nc2ccc(S(=O)(=O)Nc3nc(C)cc(C)n3)cc2)c(OC)c1 |  | inconclusive: 0.731 µM [activator, full curve, poor fit]
11 | COc1ccc(N2C3=C(CC4=C2CCCC4=O)C(=O)CCC3)cc1 | inactive: 4.73% | 
12 | Oc1ccc(CN2CCC(Cc3ccccc3)CC2)c2cccnc12 |  | active: 2.91 µM
13 | CNCC(O)CN(c1ccccc1)c1ccccc1 (stereo unspecified) | inactive: 6.62% | 
14 | Cc1ccc(C)c(-c2nc3ccc(N)cc3[nH]2)c1 |  | inconclusive: 23.1 µM [activator, single point]
15 | CCOc1ccc(N(C)S(=O)(=O)c2cc(-c3cc(C)no3)ccc2C)cc1 |  | active: 20.6 µM
16 | OC(CNCc1ccc(-c2ccccc2)cc1)c1ccccc1 (stereo unspecified) |  | active: 18.4 µM
17 | CCOC(=O)C1CCN(C(=O)c2ccccc2NS(=O)(=O)c2ccccc2)CC1 | inactive: -2.21% | 
18 | COc1cccc(CNC(=O)CCCSc2ccccc2)c1 | inactive: -0.668% | 
19 | O=C1CCCC2=C1C(c1ccsc1)CC(=O)N2c1ccccc1F (stereo unspecified) |  | inconclusive: 0.0046 µM [activator, full curve, poor fit]
20 | C[C@@H]1COC(=O)[C@H](CC(=O)OC(C)(C)C)C/C=C\C[C@@H](CC(=O)N[C@H](CO)Cc2ccccc2)C(=O)N1 | inactive: -1.78% | 
21 | CN(C(=O)c1cccc(OC2CCN(S(=O)(=O)N(C)C)CC2)c1)C1CCOC1 (stereo unspecified) |  | inconclusive: 2.91 µM [activator, single point]
22 | c1ccc2c(C3=NNC(=NC4CCCCC4)SC3)c[nH]c2c1 |  | inconclusive: 18.4 µM [activator, single point]
23 | Cc1nc(-c2ccc(Cl)cc2)sc1C1(C)CC(c2c(Cl)cccc2Cl)=NO1 (stereo unspecified) |  | inconclusive: 0.411 µM [activator, full curve, poor fit]
24 | CN(C)CCCNS(=O)(=O)c1cc(Cl)c(Cl)cc1Cl |  | inconclusive: 20.6 µM [activator, single point]

Row | Compound | re-replication activation | Potency
25 | O=C(NC1CCCCCCC1)c1ccc2c(c1)OCO2 | inactive: -3.2% | 
26 | COc1ccc(/C=C/C(=O)Nc2cc(C)nn2-c2nc3ccccc3n2Cc2cccc([N+](=O)[O-])c2)cc1 |  | inconclusive: 0.651 µM [activator, partial curve, poor fit]
27 | CN(C(=S)Nc1ccc(F)cc1)C1(c2ccccc2Cl)CCCCC1=O (stereo unspecified) |  | inconclusive: 20.6 µM [activator, single point]
28 | O=C(NC1CCCCC1)Oc1cccc2ccccc12 |  | inconclusive: 29.1 µM [activator, single point]
29 | Cc1cc(C)n2nc(C)c(-c3ccccc3)c2n1 | inactive: -11.4% | 
30 | Cc1nnc(SCC(=O)N(C)CC(=O)Nc2ccc(F)cc2)n1Cc1ccccc1 | inactive: -0.831% | 
31 | Cc1ccc(-c2ccnc3nc(Sc4ncc(C(F)(F)F)cc4Cl)nn23)cc1 |  | inconclusive: 18.4 µM [activator, partial curve]
32 | COc1ccc2cc(-c3[nH]ncc3CN3CCCC3c3nonc3C)ccc2c1 (stereo unspecified) |  | inconclusive: 20.6 µM [activator, single point]
33 | CCCN1C(=O)/C(=C/c2nc3ccccc3c(=O)[nH]2)c2cc(C)ccc21 |  | inconclusive: 16.4 µM [activator, partial curve, poor fit]
34 | NC(=O)CC1NC(=O)c2cc([N+](=O)[O-])cc(I)c2OCCC(C(N)=O)NC(=O)[C@@H]2CCCN2C1=O (stereo partly specified) |  | inconclusive: 29.1 µM [activator, single point]
35 | O=C(NCCOc1ccc(F)cc1)C1CCC(=O)N(CCCN2CCCC2=O)C1 (stereo unspecified) |  | inconclusive: 0.411 µM [activator, partial curve, poor fit]
36 | O=c1[nH]cncc1OCc1ccccc1 | inactive: -4.08% | 
37 | Cc1cc(C=O)c(O)cc1O |  | inconclusive: 29.1 µM [activator, single point]
38 | CCOC(=O)[C@@H]1[C@H]2COc3ccccc3[C@@H]2N2C(=O)N(c3ccc(Br)cc3)C(=O)[C@]12C |  | active: 23.1 µM
39 | c1ccc(CN2C3=NCCCN3c3ccccc32)cc1 | inactive: -1.36% | 
40 | CN1OC[C@@H]2CN[C@H](c3cccc(-c4ccc(C#N)cc4)c3)C[C@@H]21 |  | inconclusive: 18.4 µM [activator, partial curve, poor fit]
41 | Cc1ccc(N(C(=O)Cn2nnc(-c3ccc(C)o3)n2)C(C(=O)NC2CCCC2)c2ccco2)cc1 (stereo unspecified) |  | inconclusive: 35.5 µM [activator, single point]
42 | Cc1ccc(-n2c(SCC(=O)NCC3CCCO3)nc3n[nH]c(C)c3c2=N)cc1Cl (stereo unspecified) | inactive: -6.93% | 
43 | O=C(Nc1cc(Br)ccc1O)c1cnn2c(C(F)F)cc(C3CC3)nc12 | inactive: 17.8% | 
44 | COc1cc(CNCCCN2CCOCC2)ccc1OCC(=O)Nc1cccc(C(F)(F)F)c1 |  | inconclusive: 23.1 µM [activator, single point]
45 | COC(=O)c1c(O)cc(C(C)(C)C)n(-c2ccc(F)cc2)c1=O |  | inconclusive: 3.26 µM [activator, single point]
46 | Cc1ccc(Cn2ccc(NC(=O)c3nn(C)cc3[N+](=O)[O-])n2)cc1 |  | active: 11.6 µM
47 | Cc1ccc(N=C2NC(=O)/C(=C/c3cccn3C)S2)cc1C |  | inconclusive: 18.4 µM [activator, single point]
48 | O=C(N/N=C/c1ccc([N+](=O)[O-])s1)c1cccc(Br)c1 |  | active: 10.3 µM

Structures above that have bromine:
Row | Compound | re-replication activation | Potency
38 | CCOC(=O)[C@@H]1[C@H]2COc3ccccc3[C@@H]2N2C(=O)N(c3ccc(Br)cc3)C(=O)[C@]12C |  | active: 23.1 µM
43 | O=C(Nc1cc(Br)ccc1O)c1cnn2c(C(F)F)cc(C3CC3)nc12 | inactive: 17.8% | 
48 | O=C(N/N=C/c1ccc([N+](=O)[O-])s1)c1cccc(Br)c1 |  | active: 10.3 µM

Further entries follow:

Row | Compound | re-replication activation | Potency
49 | Cc1ccc(N=Nc2c(C)[nH][nH]c2=O)c(C)c1 |  | inconclusive: 29.1 µM [activator, partial curve, poor fit]
50 | O=C(COC(=O)Cn1[nH]c(=O)c2ccccc2c1=O)NNC(=O)c1ccccc1 |  | inconclusive: 32.6 µM [activator, single point]
51 | COc1ccccc1NC(=O)C(=O)NCCC1CCCCN1S(=O)(=O)c1cccs1 (stereo unspecified) | inactive: -71.9% | 
52 | Cc1ccc(CNC(=O)c2cc(-c3ccccc3C)n(CC3CC(c4cccc([N+](=O)[O-])c4)=NO3)n2)cc1 (stereo unspecified) |  | inconclusive: 23.1 µM [activator, partial curve, poor fit]
53 | O=C(CCl)N(c1ccccc1)C1CCCCC1 |  | inconclusive: 2.06 µM [activator, partial curve]
54 | COc1cc(C(=O)N/N=C/c2ccc(OC(=O)c3cccc(C)c3)cc2)ccc1O |  | inconclusive: 29.1 µM [activator, single point]
55 | Cc1cc(N/N=C/c2ccc(O)c(C)c2O)nc(-c2ccccc2O)n1 |  | inconclusive: 29.1 µM [activator, single point]
56 | Cc1csc(NC(=O)c2ccc(C)s2)n1 | inactive: 15.7% | 
57 | COc1ccc(N2C(=O)CC(Sc3ncn[nH]3)C2=O)c(OC)c1 (stereo unspecified) |  | active: 7.31 µM
58 | CCCn1ncc(/C=N/O)c1C |  | inconclusive: 1.84 µM [activator, partial curve, poor fit]
59 | CCCCOC(=O)c1ccc(NC(=O)C(=O)CC(=O)c2ccc(OC)cc2)cc1 | inactive: -0.0933% | 
60 | O=c1/c(=C/c2ccccn2)sc2n1CN(c1ccccc1)CN=2 |  | inconclusive: 29.1 µM [activator, single point]
61 | CC(C)Cc1nnc(NC(=O)CCC(=O)N2CCN(c3ccc([N+](=O)[O-])cc3)CC2)s1 |  | inconclusive: 29.1 µM [activator, single point]
62 | N#Cc1ccc(N2Cc3ccccc3C2=NC(=O)c2cccnc2Cl)cc1 | inactive: 2.84% | 
63 | C#CCOC(=O)CCC(=O)NCCc1ccccc1 |  | inconclusive: 20.6 µM [activator, single point]
64 | Cc1ccc(C(=O)N2CC(=O)Nc3ccc(F)cc3C2c2ccc(F)cc2)cc1 (stereo unspecified) |  | inconclusive: 23.1 µM [activator, partial curve, poor fit]
65 | COC(=O)/C(=C\Nc1ccc(Cl)cc1Cl)NC(=O)c1ccc(Cl)cc1Cl | inactive: 18.8% | 
66 | COc1ccc(CCN2C(=O)c3[nH]nc(-c4ccccc4O)c3C2c2ccccc2)cc1OC (stereo unspecified) |  | inconclusive: 14.6 µM [activator, partial curve, poor fit]
67 | O=C(CN1CCN(c2ccccc2O)CC1)Nc1ccc2c(c1)CCC2 | inactive: 10.9% | 
68 | S=C(Nc1ccc(Cl)cc1)Nc1ccc2c(c1)OCCO2 |  | active: 5.17 µM
69 | Cc1cnc(C(=O)OCC(=O)N2CCN(S(=O)(=O)c3ccc(Cl)cc3)CC2)cn1 |  | inconclusive: 6.51 µM [activator, single point]
70 | CC1(C)CC(=O)C=C(Nc2cccc(Cl)c2Cl)C1 |  | inconclusive: 0.461 µM [activator, full curve]
71 | Cc1cc(O)c(NC(=O)c2cc([N+](=O)[O-])ccc2Cl)cc1C |  | inconclusive: 20.6 µM [activator, single point]

Reprinted, nos. 60–61
Row | Compound | re-replication activation | Potency
60 | O=c1/c(=C/c2ccccn2)sc2n1CN(c1ccccc1)CN=2 |  | inconclusive: 29.1 µM [activator, single point]
61 | CC(C)Cc1nnc(NC(=O)CCC(=O)N2CCN(c3ccc([N+](=O)[O-])cc3)CC2)s1 |  | inconclusive: 29.1 µM [activator, single point]
